# Screening data, single-dose tests

Data taken from ChEMBL document CHEMBL3988442, “University of Dundee, Small-Polar-MMV Screening Library” (2021).

Mtb cholesterol medium: 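Whole-cell growth test on Mycobacterium tuberculosis, read after 4 days in a medium based on cholesterol and the lipid DPPC; the read-out is not stated. Compounds at 50 µM. Higher reads as more growth inhibition (inferred: compounds with an IC50 in retests scored well above the rest). Size under these conditions: about 69,000 compounds, about 370 of them at 50% or above in at least one test.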
Mtb glucose medium: 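Whole-cell growth test on Mycobacterium tuberculosis, read after 3 days in glucose-containing 7H9 medium; the read-out is not stated. Compounds at 50 µM. Direction is inferred from retests: higher values go with more growth inhibition. Of about 69,000 compounds tested this way, about 760 (1.1%) reached 50% or more in at least one test.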

The filed quantity is “Percent Effect” (%).
The controls that fix the scale are not given in the record; negative values are as filed.
The compounds are a random part of those screened.
Two or more numbers in one place are separate tests of the same structure; such repeats can differ widely.

| # | SMILES | Mtb cholesterol medium | Mtb glucose medium |
|---|---|---|---|
| 1 | `CC1CCN(Cc2ccc(CNC(=O)c3ccn(C)c(=O)c3)cc2)CC1` | -12.3% | -3.47% |
| 2 | `CCNc1ncc(C(=O)NCCc2csc(-c3ncccn3)n2)cn1` | -38.9% | -8.499% & -5.341% |
| 3 | `CN(Cc1nccn1CC(F)(F)F)C(=O)c1ccc(F)c(F)c1` | -19.59% | 4.245% & -13.72% |
| 4 | `Cc1nonc1CN1CC[C@@](O)(C2CCOCC2)[C@H](C)C1` | 17% | -4.513% & -0.7349% |
| 5 | `CC(C)(C)c1cc(NC(=O)CN2CCCCC2Cn2cncn2)on1` (stereo not shown) | -0.6929% | 3.271% |
| 6 | `Cc1cnn(C2CCCN(C(=O)c3sccc3-n3cnnn3)C2)c1` (stereo not shown) | -8.569% | -10.58% |
| 7 | `Cc1cc(C2CCN(S(=O)(=O)c3cn(C)cn3)CC2)ccn1` | 1.401% | 12.9% |
| 8 | `COc1ccc(Cl)cc1CS(=O)(=O)Cc1cc(C)on1` | -23.59% | -11.89% |
| 9 | `CC(C)N(Cc1ccccn1)Cc1nc2c(cnn2C)c(=O)[nH]1` | -8.372% | -12.32% |
| 10 | `CC(C)N(CC(N)=O)Cc1cccc(C(F)(F)F)c1` | -0.335% | 14.99% & 0.0924% |
| 11 | `Cc1nc(N(C)C)ncc1C(=O)NCCc1csc(-c2cnccn2)n1` | -7.155% | -0.5114% |
| 12 | `Cc1cccc2c1nc1n2[C@@H](CNC2CCCCC2)COC1` | -42.55% | -1.864% & -27.04% |
| 13 | `Cc1cc(NC(=O)NCc2ccc(S(=O)(=O)N3CCCC3)s2)no1` | -5.222% | 21.99% & -0.4448% |
| 14 | `CN1CCC(Cc2nc(-c3cnccn3)n(Cc3ccccc3)n2)CC1` | -11.87% | -28.8% |
| 15 | `O=C(O)CC(O)(CC(=O)O)C(=O)O.[H][C@@]12CC[C@@](O)(c3ccccn3)[C@]1([H])CN(Cc1cccc(OC)c1OC)C2` | -6.502% | -34.11% |

Once more, the final 2:

Result for CN1CCC(Cc2nc(-c3cnccn3)n(Cc3ccccc3)n2)CC1 was Mtb cholesterol medium: -11.87%; Mtb glucose medium: -28.8%.
Result for O=C(O)CC(O)(CC(=O)O)C(=O)O.[H][C@@]12CC[C@@](O)(c3ccccn3)[C@]1([H])CN(Cc1cccc(OC)c1OC)C2 was Mtb cholesterol medium: -6.502%; Mtb glucose medium: -34.11%.